The supplement of paper PMC10849652
Some of the results follow.

Protein sequences, listed by entry. Tags and fused reporters are not part of them. Lines headed by an entry give the natural chain unless they say otherwise; changes in a name come on top.
UniProt Q8TD30: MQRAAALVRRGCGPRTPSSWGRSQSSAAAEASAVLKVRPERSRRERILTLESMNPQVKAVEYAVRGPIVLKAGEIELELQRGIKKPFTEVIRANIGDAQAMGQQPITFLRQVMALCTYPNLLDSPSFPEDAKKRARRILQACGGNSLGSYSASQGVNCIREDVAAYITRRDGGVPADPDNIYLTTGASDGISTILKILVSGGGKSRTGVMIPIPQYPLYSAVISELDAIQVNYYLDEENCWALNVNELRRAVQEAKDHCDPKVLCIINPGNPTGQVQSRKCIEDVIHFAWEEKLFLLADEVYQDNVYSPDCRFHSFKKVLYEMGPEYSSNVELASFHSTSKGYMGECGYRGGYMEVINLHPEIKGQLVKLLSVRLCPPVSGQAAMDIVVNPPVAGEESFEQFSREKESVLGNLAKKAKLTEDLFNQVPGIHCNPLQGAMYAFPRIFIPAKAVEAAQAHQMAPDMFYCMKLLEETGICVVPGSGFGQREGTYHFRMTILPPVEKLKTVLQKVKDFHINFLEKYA
UniProt Q96NT3: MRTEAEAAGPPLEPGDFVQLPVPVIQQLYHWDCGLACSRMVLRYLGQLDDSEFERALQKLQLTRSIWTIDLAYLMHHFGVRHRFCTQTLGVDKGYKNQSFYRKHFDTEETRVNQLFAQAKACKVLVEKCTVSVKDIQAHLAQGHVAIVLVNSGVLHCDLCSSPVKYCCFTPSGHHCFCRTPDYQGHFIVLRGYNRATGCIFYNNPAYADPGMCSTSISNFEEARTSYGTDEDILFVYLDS
UniProt Q6PII5: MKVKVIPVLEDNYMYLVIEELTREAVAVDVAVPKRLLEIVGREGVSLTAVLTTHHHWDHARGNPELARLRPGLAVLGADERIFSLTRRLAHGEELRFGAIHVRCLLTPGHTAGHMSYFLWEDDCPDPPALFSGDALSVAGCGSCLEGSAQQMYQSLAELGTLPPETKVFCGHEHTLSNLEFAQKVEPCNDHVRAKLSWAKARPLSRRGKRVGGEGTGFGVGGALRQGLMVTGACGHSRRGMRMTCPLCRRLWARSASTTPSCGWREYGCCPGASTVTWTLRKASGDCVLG
UniProt P51610: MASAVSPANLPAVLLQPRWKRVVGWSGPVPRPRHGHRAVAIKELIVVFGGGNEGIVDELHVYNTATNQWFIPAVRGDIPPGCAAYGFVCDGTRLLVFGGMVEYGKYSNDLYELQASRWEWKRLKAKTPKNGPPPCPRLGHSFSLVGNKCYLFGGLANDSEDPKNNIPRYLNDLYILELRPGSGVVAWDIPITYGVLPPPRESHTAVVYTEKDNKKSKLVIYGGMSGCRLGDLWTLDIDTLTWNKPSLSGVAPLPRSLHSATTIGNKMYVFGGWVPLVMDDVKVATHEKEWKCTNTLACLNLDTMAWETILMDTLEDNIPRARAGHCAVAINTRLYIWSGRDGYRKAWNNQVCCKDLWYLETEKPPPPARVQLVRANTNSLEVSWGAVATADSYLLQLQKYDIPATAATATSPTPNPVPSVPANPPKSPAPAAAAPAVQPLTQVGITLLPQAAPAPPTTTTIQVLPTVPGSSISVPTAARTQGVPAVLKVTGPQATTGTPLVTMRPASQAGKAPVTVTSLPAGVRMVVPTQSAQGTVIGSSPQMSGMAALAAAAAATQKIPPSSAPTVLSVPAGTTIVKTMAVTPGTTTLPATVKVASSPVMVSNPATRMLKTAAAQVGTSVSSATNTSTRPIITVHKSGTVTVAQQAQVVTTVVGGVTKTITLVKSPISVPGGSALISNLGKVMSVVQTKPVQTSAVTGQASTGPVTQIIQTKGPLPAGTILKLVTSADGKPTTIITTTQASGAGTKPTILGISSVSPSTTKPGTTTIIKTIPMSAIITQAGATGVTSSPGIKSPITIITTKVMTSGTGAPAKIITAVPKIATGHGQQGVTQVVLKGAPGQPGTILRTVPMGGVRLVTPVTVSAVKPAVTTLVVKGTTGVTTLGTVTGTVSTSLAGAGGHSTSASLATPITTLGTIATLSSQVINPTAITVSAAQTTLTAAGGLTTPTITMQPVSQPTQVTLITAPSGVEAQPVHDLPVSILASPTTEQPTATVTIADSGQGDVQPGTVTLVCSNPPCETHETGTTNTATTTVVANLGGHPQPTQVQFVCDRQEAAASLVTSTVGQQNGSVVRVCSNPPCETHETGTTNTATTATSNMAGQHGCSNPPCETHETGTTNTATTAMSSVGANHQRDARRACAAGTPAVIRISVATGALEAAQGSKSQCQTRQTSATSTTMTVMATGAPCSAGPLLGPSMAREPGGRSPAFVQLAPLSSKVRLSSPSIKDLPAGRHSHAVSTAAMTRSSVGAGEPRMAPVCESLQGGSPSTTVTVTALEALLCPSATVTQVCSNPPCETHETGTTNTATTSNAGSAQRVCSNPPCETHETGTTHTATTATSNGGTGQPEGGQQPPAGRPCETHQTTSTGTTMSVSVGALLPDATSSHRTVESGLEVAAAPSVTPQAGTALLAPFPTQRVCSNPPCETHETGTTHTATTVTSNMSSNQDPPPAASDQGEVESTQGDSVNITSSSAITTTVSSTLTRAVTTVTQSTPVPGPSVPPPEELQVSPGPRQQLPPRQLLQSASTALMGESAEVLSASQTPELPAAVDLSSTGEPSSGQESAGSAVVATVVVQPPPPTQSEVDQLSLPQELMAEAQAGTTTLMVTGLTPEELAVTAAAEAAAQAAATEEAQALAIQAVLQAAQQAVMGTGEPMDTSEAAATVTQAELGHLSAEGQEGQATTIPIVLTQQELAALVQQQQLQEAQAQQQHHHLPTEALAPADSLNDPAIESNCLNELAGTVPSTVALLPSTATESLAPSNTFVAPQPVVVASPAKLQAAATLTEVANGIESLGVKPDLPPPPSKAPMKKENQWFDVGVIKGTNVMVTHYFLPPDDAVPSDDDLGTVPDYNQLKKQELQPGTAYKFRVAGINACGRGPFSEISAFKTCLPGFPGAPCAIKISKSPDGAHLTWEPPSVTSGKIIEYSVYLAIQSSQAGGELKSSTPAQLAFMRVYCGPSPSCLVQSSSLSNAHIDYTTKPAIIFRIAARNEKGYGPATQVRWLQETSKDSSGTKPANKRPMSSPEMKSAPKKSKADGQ
UniProt P57764: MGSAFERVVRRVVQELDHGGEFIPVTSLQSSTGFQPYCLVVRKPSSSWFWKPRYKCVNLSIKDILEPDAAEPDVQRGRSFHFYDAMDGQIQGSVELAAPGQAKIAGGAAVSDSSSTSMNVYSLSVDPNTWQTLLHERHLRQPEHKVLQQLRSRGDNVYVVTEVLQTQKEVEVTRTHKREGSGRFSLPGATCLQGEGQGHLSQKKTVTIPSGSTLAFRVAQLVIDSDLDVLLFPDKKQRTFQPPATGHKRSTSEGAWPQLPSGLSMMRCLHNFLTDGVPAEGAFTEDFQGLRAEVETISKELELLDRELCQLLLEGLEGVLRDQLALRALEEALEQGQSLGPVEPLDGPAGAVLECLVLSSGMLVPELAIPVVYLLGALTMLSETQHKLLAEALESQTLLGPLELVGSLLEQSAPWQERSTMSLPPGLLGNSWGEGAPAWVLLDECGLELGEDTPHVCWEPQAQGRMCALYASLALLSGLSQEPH
UniProt P07305, whole entry, looked up: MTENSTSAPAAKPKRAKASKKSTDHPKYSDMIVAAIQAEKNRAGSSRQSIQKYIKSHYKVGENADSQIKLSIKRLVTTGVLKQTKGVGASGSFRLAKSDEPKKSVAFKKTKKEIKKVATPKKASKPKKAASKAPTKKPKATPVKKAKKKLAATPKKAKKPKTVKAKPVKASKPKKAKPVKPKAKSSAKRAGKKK
UniProt Q9UBP9: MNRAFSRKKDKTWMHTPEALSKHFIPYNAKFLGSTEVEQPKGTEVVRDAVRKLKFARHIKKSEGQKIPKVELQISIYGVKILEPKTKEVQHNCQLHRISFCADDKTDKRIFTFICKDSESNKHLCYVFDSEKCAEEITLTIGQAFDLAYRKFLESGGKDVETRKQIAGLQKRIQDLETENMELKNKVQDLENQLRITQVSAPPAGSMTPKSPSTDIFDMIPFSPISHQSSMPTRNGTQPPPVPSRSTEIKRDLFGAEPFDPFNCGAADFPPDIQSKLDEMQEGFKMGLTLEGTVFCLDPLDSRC
UniProt Q6IC98: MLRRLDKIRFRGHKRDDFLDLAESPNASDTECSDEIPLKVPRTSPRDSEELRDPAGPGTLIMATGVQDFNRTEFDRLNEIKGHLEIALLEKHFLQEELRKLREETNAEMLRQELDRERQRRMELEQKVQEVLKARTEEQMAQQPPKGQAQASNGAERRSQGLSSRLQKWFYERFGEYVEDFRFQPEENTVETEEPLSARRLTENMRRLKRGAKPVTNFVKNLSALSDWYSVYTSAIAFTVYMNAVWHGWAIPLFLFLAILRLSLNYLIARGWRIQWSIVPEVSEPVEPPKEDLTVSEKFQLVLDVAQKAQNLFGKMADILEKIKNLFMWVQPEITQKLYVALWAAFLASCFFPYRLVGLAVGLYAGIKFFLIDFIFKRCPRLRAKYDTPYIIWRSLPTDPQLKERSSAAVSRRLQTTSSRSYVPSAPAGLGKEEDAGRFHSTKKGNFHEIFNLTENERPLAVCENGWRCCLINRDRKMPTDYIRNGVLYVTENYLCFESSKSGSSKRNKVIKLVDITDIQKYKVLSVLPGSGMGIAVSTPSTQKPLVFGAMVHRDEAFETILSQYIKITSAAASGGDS
UniProt P28161: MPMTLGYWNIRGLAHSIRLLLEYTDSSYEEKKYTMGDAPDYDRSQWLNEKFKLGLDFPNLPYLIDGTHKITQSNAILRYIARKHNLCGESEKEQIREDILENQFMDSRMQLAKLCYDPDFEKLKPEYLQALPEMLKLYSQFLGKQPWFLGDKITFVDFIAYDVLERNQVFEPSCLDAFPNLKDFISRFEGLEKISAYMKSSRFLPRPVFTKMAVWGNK
UniProt Q6P1K8: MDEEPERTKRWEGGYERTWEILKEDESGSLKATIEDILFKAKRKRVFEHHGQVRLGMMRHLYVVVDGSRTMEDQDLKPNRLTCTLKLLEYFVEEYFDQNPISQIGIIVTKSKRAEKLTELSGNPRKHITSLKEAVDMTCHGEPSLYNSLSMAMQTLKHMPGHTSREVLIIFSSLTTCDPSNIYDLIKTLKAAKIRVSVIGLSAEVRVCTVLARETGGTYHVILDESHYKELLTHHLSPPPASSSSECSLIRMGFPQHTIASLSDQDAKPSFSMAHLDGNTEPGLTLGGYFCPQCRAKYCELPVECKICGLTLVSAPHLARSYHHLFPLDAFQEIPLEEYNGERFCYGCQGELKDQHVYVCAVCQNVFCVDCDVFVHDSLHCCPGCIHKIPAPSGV
UniProt P41594, whole entry, looked up: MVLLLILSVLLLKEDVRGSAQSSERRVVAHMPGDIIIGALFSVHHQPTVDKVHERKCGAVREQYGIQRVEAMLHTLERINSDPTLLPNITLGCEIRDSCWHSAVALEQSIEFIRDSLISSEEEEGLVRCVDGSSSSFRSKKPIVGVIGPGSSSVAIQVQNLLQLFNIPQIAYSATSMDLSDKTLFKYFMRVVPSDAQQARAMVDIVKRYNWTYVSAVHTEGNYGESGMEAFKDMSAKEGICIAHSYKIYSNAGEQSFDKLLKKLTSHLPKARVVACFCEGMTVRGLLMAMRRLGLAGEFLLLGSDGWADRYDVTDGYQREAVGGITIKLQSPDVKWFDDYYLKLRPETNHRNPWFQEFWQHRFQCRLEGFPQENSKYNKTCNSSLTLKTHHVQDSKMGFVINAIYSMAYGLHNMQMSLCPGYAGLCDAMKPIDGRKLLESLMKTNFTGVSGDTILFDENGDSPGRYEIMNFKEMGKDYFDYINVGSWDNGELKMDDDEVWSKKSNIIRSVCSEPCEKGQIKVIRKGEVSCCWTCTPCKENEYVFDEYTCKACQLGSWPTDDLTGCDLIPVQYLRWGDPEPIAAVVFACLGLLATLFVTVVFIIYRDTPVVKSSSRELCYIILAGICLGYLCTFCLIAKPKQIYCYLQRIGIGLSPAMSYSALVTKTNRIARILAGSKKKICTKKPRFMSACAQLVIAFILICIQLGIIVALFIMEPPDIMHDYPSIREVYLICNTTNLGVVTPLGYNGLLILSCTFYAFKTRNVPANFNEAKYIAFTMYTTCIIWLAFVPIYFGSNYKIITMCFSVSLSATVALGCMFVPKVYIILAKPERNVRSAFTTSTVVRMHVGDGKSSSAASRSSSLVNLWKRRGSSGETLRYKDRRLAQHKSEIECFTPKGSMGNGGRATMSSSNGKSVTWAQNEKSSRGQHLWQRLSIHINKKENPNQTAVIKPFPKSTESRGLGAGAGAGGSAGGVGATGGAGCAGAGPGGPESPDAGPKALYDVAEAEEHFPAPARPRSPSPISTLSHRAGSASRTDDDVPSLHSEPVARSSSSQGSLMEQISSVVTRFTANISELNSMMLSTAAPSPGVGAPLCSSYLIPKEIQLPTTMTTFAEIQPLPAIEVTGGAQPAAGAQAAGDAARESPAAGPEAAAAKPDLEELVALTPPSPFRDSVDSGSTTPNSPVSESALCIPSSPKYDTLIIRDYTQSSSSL

What was measured:
Assay in all cases: log2 fold change, soluble protein after heating vs DMSO (PISA); higher = thermal stabilisation; K562 lysate, 10 uM; active = over 0.2 and 3.5 SD of the protein, either way, in both replicates (recomputed)
crizotinib = compound: C[C@@H](Oc1cc(-c2cnn(C3CCNCC3)c2)cnc1N)c1c(Cl)ccc(F)c1Cl [crizotinib]
Summary of the method: (§1)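 Soluble protein was defined as the supernatant remaining after 21,000xg for 90 min, following pooling of heated aliquots and adjustment to 0.5% NP-40 at 4°C. Before that, crude K562 extract at 1 mg/mL protein in PBS pH 7.4 with 1 mM MgCl2 was treated with 10 μM compound for 30 min and heated for 3 min across 48°C-58°C. Quantification used TMTpro 16plex LC-MS/MS with channel sums equalised, and values are log-two fold changes in thermal stability relative to solvent controls from duplicates.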

duvelisib = compound: C[C@H](Nc1ncnc2nc[nH]c12)c1cc2cccc(Cl)c2c(=O)n1-c1ccccc1 [duvelisib]
Summary of the method: as §1

tozasertib = compound: Cc1cc(Nc2cc(N3CCN(C)CC3)nc(Sc3ccc(NC(=O)C4CC4)cc3)n2)n[nH]1 [tozasertib]
Summary of the method: as §1

doramapimod = compound: Cc1ccc(-n2nc(C(C)(C)C)cc2NC(=O)Nc2ccc(OCCN3CCOCC3)c3ccccc23)cc1 [doramapimod]
Summary of the method: as §1

dasatinib = compound: Cc1nc(Nc2ncc(C(=O)Nc3c(C)cccc3Cl)s2)cc(N2CCN(CCO)CC2)n1 [dasatinib]
Summary of the method: as §1

[1] = compound: Cn1cc(-c2ccc3c(c2)CCN3C(=O)Cc2cccc(C(F)(F)F)c2)c2c(N)ncnc21
Summary of the method: as §1

quisinostat = compound: Cn1cc(CNCC2CCN(c3ncc(C(=O)NO)cn3)CC2)c2ccccc21 [quisinostat]
Summary of the method: as §1

[2] = compound: NC(=O)Nc1cc(-c2cccc(F)c2)sc1C(=O)N[C@H]1CCCNC1
Summary of the method: as §1

[3] = compound: NC1(c2ccc(-c3nc4ccn5c(=O)[nH]nc5c4cc3-c3ccccc3)cc2)CCC1
Summary of the method: as §1

lapatinib = compound: CS(=O)(=O)CCNCc1ccc(-c2ccc3ncnc(Nc4ccc(OCc5cccc(F)c5)c(Cl)c4)c3c2)o1 [lapatinib]
Summary of the method: as §1

[4] = compound: NC(=O)c1cnc(N[C@@H]2CCCC[C@@H]2N)nc1Nc1cccc(-n2nccn2)c1
Summary of the method: as §1

pictilisib = compound: CS(=O)(=O)N1CCN(Cc2cc3nc(-c4cccc5[nH]ncc45)nc(N4CCOCC4)c3s2)CC1 [pictilisib]
Summary of the method: as §1

bafetinib = compound: Cc1ccc(NC(=O)c2ccc(CN3CC[C@H](N(C)C)C3)c(C(F)(F)F)c2)cc1Nc1nccc(-c2cncnc2)n1 [bafetinib]
Summary of the method: as §1

nilotinib = compound: Cc1cn(-c2cc(NC(=O)c3ccc(C)c(Nc4nccc(-c5cccnc5)n4)c3)cc(C(F)(F)F)c2)cn1 [nilotinib]
Summary of the method: as §1

[5] = compound: Cc1nc(Nc2n[nH]c3c2CN(C(=O)N[C@H](CN(C)C)c2ccccc2)C3(C)C)c2sccc2n1
Summary of the method: as §1

[6] = compound: Cc1ncc(-c2ccnc(Nc3ccc(S(C)(=O)=O)cc3)n2)n1C(C)C
Summary of the method: as §1

tipifarnib = compound: Cn1cncc1[C@@](N)(c1ccc(Cl)cc1)c1ccc2c(c1)c(-c1cccc(Cl)c1)cc(=O)n2C [tipifarnib]
Summary of the method: as §1

[7] = compound: C[C@H](C1=CC=C(C=C1)C(=O)NC2=C3C=CNC3=NC=C2)N
Summary of the method: as §1

gandotinib = compound: Cc1cc(Nc2cc(CN3CCOCC3)c3nc(C)c(Cc4ccc(Cl)cc4F)n3n2)n[nH]1 [gandotinib]
Summary of the method: as §1

[8] = compound: Cc1cccc(CC(=O)N2CCc3c2ccc(-c2cn(C)c4ncnc(N)c24)c3F)n1
Summary of the method: as §1

Measured: log2 fold change

GPT2 (UniProt Q8TD30)
inactive: crizotinib 0.014 | duvelisib -0.007 | tozasertib 0.028 | doramapimod 0.099 | dasatinib 0.036 | [1] 0.034 | quisinostat 0.039 | [2] -0.031 | [3] -0.091

GUCD1 isoform 3 (UniProt Q96NT3)
inactive: lapatinib -0.014 | crizotinib -0.13 | duvelisib 0.079 | doramapimod 0.036 | dasatinib -0.108 | [1] 0.133 | quisinostat -0.028 | [2] -0.132 | [4] -0.136 | [3] -0.026

HAGHL isoform 2 (UniProt Q6PII5)
inactive: lapatinib -0.023 | pictilisib -0.038 | crizotinib 0.062 | duvelisib 0.012 | tozasertib -0.062 | doramapimod -0.011 | bafetinib 0.002 | nilotinib -0.009 | [5] 0.05 | dasatinib 0.018 | [6] 0.014 | [1] 0.042 | quisinostat 0.049 | tipifarnib 0.035 | [2] -0.011 | [4] 0.013 | [3] -0.066

GRAMD1A (UniProt Q96CP6)
inactive: crizotinib 0.111 | doramapimod -0.286 | quisinostat 0.085 | [2] 0.02 | [3] -0.038

Quoted from the results shown (2 entries):
HAGHL isoform 2 (UniProt Q6PII5)
inactive: lapatinib -0.023 | pictilisib -0.038 | crizotinib 0.062 | duvelisib 0.012 | tozasertib -0.062 | doramapimod -0.011 | bafetinib 0.002 | nilotinib -0.009 | [5] 0.05 | dasatinib 0.018 | [6] 0.014 | [1] 0.042 | quisinostat 0.049 | tipifarnib 0.035 | [2] -0.011 | [4] 0.013 | [3] -0.066

GRAMD1A (UniProt Q96CP6)
inactive: crizotinib 0.111 | doramapimod -0.286 | quisinostat 0.085 | [2] 0.02 | [3] -0.038

(cont.)

HCFC1 (UniProt P51610)
inactive: lapatinib 0.04 | pictilisib -0.017 | crizotinib -0.17 | [7] 0.034 | gandotinib 0.158 | doramapimod -0.047 | bafetinib 0.108 | [8] -0.238 | nilotinib 0.081 | [5] -0.256 | [6] -0.026 | quisinostat -0.012 | tipifarnib -0.067 | [2] 0.038 | [4] 0 | [3] 0.101

H3C1 (UniProt P68431)
inactive: pictilisib -0.019 | bafetinib -0.013

GSDMD (UniProt P57764)
inactive: crizotinib 0.089 | doramapimod -0.116 | quisinostat 0.098 | [2] -0.074

HAGH isoform 2 (UniProt Q16775)
inactive: lapatinib -0.078 | crizotinib 0.004 | duvelisib 0.187 | doramapimod -0.138 | dasatinib 0.228 | [1] -0.024 | quisinostat 0.179 | [2] -0.066 | [4] 0.027 | [3] 0.006

HABP4 (UniProt Q5JVS0)
inactive: pictilisib 0.013 | bafetinib 0.059

GREB1 (UniProt Q4ZG55)
inactive: pictilisib 0.014 | crizotinib -0.247 | [7] -0.4 | gandotinib 0.267 | tozasertib -0.154 | doramapimod -0.029 | bafetinib -0.129 | [8] 0.334 | quisinostat -0.509 | [2] 0.214 | [3] -0.171

H1-0 (UniProt P07305)
inactive: crizotinib 0.053 | duvelisib -0.215 | doramapimod -0.009 | dasatinib 0.064 | [1] 0.006 | quisinostat -0.126 | [2] 0.019

GULP1 (UniProt Q9UBP9)
inactive: pictilisib 0.15 | crizotinib -0.224 | [7] 0.032 | duvelisib -0.03 | gandotinib 0.046 | tozasertib 0.042 | doramapimod 0.162 | bafetinib 0.054 | [8] 0.061 | nilotinib -0.033 | [5] -0.031 | dasatinib -0.124 | [6] 0.032 | [1] 0.004 | quisinostat -0.19 | tipifarnib -0.088 | [2] 0.135 | [3] 0.107

GRAMD4 (UniProt Q6IC98)
inactive: lapatinib 0.098 | crizotinib -0.144 | duvelisib 0 | tozasertib -0.051 | doramapimod -0.028 | nilotinib 0.161 | [5] -0.246 | dasatinib -0.063 | [6] 0.28 | [1] -0.126 | quisinostat -0.12 | tipifarnib -0.017 | [2] 0.091 | [4] -0.044 | [3] -0.149

H3-3A (UniProt P84243)
inactive: lapatinib 0.028 | pictilisib -0.018 | crizotinib 0.046 | [7] 0 | gandotinib 0.016 | tozasertib -0.083 | doramapimod -0.062 | bafetinib -0.049 | [8] 0.03 | quisinostat 0.014 | [2] 0.032 | [4] 0 | [3] -0.093

HACD2 (UniProt Q6Y1H2)
inactive: lapatinib -0.151 | pictilisib 0.126 | bafetinib -0.249 | [4] -0.045 | [3] 0.067

GSPT1 isoform 2 (UniProt P15170)
inactive: lapatinib 0.055 | [4] -0.027

HAL (UniProt P42357)
inactive: lapatinib 0.314 | crizotinib -0.017 | [7] 0.547 | duvelisib -0.357 | gandotinib -0.119 | tozasertib 0.237 | doramapimod -0.156 | [8] -0.269 | dasatinib 0.247 | [1] -0.171 | quisinostat 0.107 | [2] -0.243 | [4] 0.118 | [3] 0.195

GSTM2 (UniProt P28161)
inactive: lapatinib -0.024 | pictilisib -0.011 | [7] 0.121 | duvelisib -0.067 | gandotinib -0.042 | tozasertib 0.02 | bafetinib -0.011 | [8] -0.079 | nilotinib 0.124 | [5] -0.007 | dasatinib 0.027 | [6] 0.007 | [1] -0.005 | tipifarnib 0.064 | [4] -0.052 | [3] -0.019

HBZ, A0A494C057
inactive: lapatinib -0.137 | pictilisib -0.116 | [7] -0.024 | gandotinib -0.175 | bafetinib 0.018 | [8] 0.063 | nilotinib -0.059 | [5] 0.032 | [6] 0.122 | tipifarnib 0.149 | [4] -0.131

GTF2H2C (UniProt Q6P1K8)
inactive: crizotinib -0.063 | duvelisib 0.059 | tozasertib 0.004 | doramapimod -0.056 | dasatinib -0.099 | [1] 0.068 | quisinostat -0.098 | [2] 0.076

GRN (UniProt P28799)
inactive: lapatinib -0.217 | crizotinib 0.03 | [7] -0.059 | duvelisib -0.053 | gandotinib 0.023 | tozasertib -0.044 | doramapimod 0.034 | [8] -0.021 | dasatinib 0.078 | [1] -0.003 | quisinostat -0.059 | [2] 0.002 | [4] 0.01 | [3] -0.027

GRM5 (UniProt P41594)
inactive: lapatinib -0.107 | pictilisib -0.396 | duvelisib 0.013 | tozasertib 0.006 | bafetinib -0.407 | nilotinib -0.078 | [5] 0.023 | dasatinib -0.109 | [6] 0.145 | [1] 0.043 | tipifarnib 0.116 | [4] -0.11 | [3] -0.065

HBD (UniProt E9PEW8)
inactive: lapatinib -0.001 | crizotinib -0.012 | [7] -0.028 | gandotinib -0.093 | doramapimod 0.054 | [8] 0.017 | quisinostat -0.046 | [2] 0.053 | [4] -0.071

GYPA, A0A2R8Y7F9
inactive: pictilisib -0.033 | [7] -0.562 | gandotinib 0.202 | bafetinib -0.029 | [8] 0.17
